Measurements as given in the supplement of paper PMC11006884.
The targets with a hit were mostly taken out for another list; the other results follow. This is a noisy data set. This is a selection; strong and weak results do not stand in their true shares.

Chains of the proteins cited; added tags and fusions are not shown. Lines headed by an entry give the natural chain unless they say otherwise; changes in a name come on top.
UniProt A6NHR9: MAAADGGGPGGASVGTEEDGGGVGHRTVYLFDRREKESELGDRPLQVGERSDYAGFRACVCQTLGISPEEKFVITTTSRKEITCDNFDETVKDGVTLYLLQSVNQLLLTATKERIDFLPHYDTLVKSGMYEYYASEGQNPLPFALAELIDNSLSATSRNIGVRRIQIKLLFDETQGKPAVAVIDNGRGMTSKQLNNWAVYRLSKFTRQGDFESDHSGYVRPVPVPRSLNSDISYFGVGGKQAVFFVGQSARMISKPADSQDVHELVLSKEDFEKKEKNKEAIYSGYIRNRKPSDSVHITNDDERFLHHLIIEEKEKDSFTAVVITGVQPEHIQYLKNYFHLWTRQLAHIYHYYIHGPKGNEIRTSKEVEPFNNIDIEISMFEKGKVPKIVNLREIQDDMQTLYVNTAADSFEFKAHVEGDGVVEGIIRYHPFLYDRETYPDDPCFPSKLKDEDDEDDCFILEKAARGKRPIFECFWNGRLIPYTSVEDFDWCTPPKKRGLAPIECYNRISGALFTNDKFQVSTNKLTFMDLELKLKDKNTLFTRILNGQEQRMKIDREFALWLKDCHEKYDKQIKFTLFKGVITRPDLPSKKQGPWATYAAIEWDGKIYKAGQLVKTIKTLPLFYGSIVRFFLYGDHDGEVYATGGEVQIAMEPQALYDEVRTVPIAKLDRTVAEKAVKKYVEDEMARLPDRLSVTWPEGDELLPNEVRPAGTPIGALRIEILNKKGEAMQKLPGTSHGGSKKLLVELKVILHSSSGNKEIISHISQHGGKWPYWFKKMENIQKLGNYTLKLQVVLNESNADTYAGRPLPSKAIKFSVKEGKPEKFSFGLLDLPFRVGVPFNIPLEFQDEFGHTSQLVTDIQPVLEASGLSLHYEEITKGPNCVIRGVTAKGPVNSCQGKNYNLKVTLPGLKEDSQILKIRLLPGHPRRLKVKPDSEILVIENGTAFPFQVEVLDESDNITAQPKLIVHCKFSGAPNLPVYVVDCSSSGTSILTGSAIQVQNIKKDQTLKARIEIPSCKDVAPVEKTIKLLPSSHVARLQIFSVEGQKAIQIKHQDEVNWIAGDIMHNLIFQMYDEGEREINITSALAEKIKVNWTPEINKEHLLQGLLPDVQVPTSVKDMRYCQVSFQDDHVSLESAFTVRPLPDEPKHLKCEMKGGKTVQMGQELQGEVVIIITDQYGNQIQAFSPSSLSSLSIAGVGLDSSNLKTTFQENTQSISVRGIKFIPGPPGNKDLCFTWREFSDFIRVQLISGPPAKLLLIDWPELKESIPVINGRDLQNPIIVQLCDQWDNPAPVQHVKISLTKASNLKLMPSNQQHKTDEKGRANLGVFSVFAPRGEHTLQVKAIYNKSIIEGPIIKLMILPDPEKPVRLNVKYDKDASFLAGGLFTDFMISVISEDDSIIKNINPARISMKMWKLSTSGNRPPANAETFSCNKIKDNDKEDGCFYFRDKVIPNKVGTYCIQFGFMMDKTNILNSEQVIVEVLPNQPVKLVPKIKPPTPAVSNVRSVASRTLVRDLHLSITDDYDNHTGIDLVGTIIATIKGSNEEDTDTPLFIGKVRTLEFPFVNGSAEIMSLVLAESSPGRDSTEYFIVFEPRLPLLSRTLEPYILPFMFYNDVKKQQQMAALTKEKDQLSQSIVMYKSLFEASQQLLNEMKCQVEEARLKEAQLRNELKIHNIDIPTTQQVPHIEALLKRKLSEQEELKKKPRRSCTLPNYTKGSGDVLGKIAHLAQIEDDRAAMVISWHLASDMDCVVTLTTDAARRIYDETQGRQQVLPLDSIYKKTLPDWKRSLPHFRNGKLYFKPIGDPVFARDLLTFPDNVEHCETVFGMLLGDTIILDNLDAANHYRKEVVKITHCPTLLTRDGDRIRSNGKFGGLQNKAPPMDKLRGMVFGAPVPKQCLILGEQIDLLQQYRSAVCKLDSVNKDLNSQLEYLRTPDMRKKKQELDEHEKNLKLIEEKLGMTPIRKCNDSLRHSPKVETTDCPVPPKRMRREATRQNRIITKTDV
UniProt A6NDU8: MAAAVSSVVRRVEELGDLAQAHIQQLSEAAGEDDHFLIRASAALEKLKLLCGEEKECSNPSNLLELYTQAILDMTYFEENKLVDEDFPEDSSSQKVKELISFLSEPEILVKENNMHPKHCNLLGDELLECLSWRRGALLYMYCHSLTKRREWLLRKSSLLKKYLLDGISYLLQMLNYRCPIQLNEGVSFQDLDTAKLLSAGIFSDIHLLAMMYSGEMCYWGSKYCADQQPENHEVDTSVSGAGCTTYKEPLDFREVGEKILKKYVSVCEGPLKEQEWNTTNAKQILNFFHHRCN
UniProt A6NDG6: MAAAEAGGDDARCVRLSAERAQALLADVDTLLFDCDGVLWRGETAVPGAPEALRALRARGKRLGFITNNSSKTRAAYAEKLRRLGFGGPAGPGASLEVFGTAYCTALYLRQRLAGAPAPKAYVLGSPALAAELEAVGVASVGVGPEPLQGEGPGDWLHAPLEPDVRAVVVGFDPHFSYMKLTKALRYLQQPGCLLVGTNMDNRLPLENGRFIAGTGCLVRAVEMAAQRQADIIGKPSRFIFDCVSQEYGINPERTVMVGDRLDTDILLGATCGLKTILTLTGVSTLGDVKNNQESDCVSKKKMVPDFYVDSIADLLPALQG
UniProt A5YKK6, whole entry, looked up: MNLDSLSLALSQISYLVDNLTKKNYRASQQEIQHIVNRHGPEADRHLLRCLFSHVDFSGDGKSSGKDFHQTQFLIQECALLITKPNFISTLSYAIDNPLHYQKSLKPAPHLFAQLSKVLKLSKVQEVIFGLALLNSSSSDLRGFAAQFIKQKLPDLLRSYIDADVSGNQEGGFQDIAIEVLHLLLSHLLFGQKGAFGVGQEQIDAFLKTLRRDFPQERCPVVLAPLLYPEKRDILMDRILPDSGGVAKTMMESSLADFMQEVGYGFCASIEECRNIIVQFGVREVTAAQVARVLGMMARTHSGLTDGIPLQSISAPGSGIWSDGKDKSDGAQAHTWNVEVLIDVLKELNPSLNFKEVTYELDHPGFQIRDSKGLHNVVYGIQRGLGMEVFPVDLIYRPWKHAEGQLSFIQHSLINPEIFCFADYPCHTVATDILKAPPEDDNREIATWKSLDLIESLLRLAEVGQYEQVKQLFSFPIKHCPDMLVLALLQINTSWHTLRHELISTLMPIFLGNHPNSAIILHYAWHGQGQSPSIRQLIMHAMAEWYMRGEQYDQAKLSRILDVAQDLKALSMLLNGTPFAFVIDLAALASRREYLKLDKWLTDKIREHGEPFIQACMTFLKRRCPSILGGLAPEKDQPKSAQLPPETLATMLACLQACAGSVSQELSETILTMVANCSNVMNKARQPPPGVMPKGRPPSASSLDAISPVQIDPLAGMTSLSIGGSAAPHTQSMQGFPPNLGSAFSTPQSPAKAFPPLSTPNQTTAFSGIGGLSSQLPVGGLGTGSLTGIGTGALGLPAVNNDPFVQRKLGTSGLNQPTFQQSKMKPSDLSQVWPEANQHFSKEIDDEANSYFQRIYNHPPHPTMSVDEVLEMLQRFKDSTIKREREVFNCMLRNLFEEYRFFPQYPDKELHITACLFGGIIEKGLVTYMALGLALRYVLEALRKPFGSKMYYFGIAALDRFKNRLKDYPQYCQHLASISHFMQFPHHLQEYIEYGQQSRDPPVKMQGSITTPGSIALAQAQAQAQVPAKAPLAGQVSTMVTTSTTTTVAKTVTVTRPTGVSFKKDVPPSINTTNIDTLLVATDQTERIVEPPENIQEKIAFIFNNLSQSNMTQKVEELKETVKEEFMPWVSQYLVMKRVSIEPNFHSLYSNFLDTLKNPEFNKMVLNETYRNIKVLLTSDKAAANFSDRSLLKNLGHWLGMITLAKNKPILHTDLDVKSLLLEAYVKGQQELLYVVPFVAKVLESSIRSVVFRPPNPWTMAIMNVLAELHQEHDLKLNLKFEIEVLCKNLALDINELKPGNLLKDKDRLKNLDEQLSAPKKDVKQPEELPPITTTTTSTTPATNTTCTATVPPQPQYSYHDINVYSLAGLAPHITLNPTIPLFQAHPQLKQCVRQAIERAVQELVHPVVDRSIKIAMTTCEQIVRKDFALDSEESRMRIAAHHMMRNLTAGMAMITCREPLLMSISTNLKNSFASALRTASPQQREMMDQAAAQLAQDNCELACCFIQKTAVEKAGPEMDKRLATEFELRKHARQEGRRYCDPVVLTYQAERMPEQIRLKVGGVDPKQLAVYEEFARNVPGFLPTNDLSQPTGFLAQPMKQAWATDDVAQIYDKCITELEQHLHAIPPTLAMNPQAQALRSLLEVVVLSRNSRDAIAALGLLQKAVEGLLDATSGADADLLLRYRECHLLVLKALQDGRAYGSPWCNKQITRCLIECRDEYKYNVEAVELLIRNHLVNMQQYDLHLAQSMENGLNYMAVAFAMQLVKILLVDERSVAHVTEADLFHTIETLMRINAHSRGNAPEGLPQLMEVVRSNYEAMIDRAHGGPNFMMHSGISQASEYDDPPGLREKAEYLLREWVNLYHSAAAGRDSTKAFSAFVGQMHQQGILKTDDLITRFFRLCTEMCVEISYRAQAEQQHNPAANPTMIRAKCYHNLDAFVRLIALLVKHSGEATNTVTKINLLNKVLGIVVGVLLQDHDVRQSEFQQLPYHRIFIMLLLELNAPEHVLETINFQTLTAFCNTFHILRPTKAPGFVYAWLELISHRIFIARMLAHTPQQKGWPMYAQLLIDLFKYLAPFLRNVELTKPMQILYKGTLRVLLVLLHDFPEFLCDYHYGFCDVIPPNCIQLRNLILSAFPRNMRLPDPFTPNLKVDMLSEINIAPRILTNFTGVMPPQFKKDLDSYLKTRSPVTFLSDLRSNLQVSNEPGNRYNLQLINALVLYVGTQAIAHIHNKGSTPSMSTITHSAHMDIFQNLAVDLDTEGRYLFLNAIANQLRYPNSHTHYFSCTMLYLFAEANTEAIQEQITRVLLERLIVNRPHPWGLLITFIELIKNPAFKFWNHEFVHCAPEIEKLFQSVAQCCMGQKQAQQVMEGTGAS
UniProt A1L0T0: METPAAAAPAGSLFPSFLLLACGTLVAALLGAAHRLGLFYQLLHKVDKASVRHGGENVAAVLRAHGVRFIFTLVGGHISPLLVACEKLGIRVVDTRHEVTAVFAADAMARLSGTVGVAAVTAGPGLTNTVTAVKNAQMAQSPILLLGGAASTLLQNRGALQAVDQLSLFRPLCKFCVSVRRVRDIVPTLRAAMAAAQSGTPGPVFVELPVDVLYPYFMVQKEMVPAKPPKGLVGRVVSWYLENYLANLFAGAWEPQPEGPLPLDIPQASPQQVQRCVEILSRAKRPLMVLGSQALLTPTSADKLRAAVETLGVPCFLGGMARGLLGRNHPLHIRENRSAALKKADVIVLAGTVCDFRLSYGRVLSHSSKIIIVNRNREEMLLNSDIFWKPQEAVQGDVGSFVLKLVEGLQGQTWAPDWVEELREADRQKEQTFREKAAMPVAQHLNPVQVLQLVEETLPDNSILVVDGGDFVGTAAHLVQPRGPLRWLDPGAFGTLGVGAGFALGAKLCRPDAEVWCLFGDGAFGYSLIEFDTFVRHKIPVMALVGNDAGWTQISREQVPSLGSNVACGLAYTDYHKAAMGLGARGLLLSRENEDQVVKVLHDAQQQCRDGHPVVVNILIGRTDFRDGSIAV
UniProt A2RUB1: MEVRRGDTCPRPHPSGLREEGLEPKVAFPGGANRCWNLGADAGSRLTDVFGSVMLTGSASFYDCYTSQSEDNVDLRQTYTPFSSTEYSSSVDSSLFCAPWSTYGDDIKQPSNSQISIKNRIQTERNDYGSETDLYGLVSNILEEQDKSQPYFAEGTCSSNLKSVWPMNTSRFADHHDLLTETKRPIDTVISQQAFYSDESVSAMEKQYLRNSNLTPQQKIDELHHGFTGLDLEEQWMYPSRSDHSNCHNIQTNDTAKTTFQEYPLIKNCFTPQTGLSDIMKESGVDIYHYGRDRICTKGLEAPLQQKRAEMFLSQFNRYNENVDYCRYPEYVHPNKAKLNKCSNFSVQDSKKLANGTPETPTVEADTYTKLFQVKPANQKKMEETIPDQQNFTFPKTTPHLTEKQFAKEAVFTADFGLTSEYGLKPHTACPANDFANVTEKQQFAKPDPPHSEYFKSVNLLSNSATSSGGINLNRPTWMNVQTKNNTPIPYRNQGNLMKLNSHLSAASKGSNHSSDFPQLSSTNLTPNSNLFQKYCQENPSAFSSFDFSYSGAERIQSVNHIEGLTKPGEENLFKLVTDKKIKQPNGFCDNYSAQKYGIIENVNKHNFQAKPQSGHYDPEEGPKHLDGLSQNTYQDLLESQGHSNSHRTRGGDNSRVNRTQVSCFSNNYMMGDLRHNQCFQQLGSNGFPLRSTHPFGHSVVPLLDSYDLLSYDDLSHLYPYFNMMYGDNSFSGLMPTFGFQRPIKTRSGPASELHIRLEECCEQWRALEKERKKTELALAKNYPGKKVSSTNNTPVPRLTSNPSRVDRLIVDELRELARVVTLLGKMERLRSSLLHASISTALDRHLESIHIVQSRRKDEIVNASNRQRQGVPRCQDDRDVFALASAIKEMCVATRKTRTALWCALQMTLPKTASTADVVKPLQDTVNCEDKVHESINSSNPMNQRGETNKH

Compound: COC(=O)/C=C/c1ccccc1 [methyl cinnamate]
Experiment: log2 ratio of iodoacetamide-alkyne labeling of the cysteine site, DMSO over compound (competition); higher = stronger covalent engagement of the cysteine by the compound, active = 1 or more
Conditions: 500 µM; treatment time 1 h; system: HEK293T cell lysate
Outline: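 Reporter intensities give each cysteine's log2 competition ratio as the mean of control channels over the mean of compound channels. The samples were HEK293T lysate (2 mg/mL) given vehicle or electrophile (500 µM, 1 h, ambient temperature), then iodoacetamide alkyne (1 h), followed by click coupling to sCIP-TMT reagents, pooling, trypsin digestion overnight at 37 °C, streptavidin enrichment, acid elution, Orbitrap Eclipse LC-MS/MS with FAIMS and FragPipe quantification. Duplicate channels and three replicates were run, and cysteines quantified in only one replicate were discarded.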

log2 ratio of iodoacetamide-alkyne labeling, inactive:
SMCHD1 C84 (UniProt A6NHR9) -0.283, GTPBP10 C338 (UniProt A4D1E9) 0.0147, C5orf51 C179 (UniProt A6NDU8) 0.29, SMCHD1 C1433 (UniProt A6NHR9) 0.0524, A0AVT1_C546 0.00296, UHRF1BP1L C633 (UniProt A0JNW5) -0.64, UHRF1BP1L C647 (UniProt A0JNW5) 0.123, SMCHD1 C492 (UniProt A6NHR9) 0.144, PGP C297 (UniProt A6NDG6) 0.259, DDTL C24 (UniProt A6NHG4) 0.326, ZNF316 C650 (UniProt A6NFI3) 0.0508, SMCHD1 C1856 (UniProt A6NHR9) 0.373, CNOT1 C624 (UniProt A5YKK6) 0.21, A0AVT1_C347 0.414, SMCHD1 C1823 (UniProt A6NHR9) -0.188, UniProt A0MZ66_C442 0.229, SMCHD1 C59 (UniProt A6NHR9) 0.0634, ILVBL C315 (UniProt A1L0T0) -0.0232, CNOT1 C1541 (UniProt A5YKK6) 0.213, TMEM189 C21 (UniProt A5PLL7) 0.285, TMEM189 C22 (UniProt A5PLL7) 0.285, UniProt A0MZ66_C565 0.288, UniProt A2RUB1_C664 0.307, SMCHD1 C1124 (UniProt A6NHR9) -0.0665, CNOT1 C219 (UniProt A5YKK6) 0.227, A0AVT1_C625 0.21, A0AV96_C349 -0.126, ILVBL C568 (UniProt A1L0T0) 0.272, SMCHD1 C1917 (UniProt A6NHR9) 0.18, A0AVT1_C721 -0.0149, PGP C193 (UniProt A6NDG6) -0.0772, SH3PXD2B C783 (UniProt A1X283) 0.234, UniProt A2RUB1_C342 0.162, SMCHD1 C1656 (UniProt A6NHR9) 0.302, SMCHD1 C1899 (UniProt A6NHR9) 0.013, PGP C243 (UniProt A6NDG6) 0.377, UniProt A2RUB1_C269 0.0685
